Data reported in PubChem BioAssay AID248 (DTP/NCI, 2004).
The list shows only some results of the screen, not a fair sample: it gathers tests that were run many times, whatever their T/C, doses with no T/C, and many T/C values between a quarter and a half above the control. Other doses and runs of a compound stand elsewhere. T/C gives the treated animals as a percentage of the vehicle group. Some doses have a count of surviving animals in place of a T/C: the source files T/C as zero there, which appears to mark a toxic dose or a test without result, not a measured value. Some survivor counts are full or nearly so, which does not show that the dose was tolerated: the source hardly ever lists a survival T/C far under the control, and the zero likely stands for such cases as well. Survivors were counted at the toxicity check, usually on the fifth day, unless a day is given; later deaths do not show. Schedule codes are those of the source, read here as Q, the interval in days (D) or hours (H), X, the number of doses. Some entries were tested several times; the results are listed from low to high. Where survival is the endpoint, this PubChem deposit counts one and a half times the control or more as active, and values a quarter to a half above the control carry no call in these data; other NCI protocols may use other cut-offs.

System: L1210 leukemia ip in BDF1 mice, survival T/C
Assay: NCI In Vivo Anticancer Drug Screen. Data for tumor model L1210 Leukemia (intraperitoneal) in B6D2F1 (BDF1) mice
Conditions: T/C endpoint: mean survival time, higher T/C = longer survival
[1] = dose: 100.0 mg/kg/injection, schedule: Q04DX003 (ip), vehicle: saline
[2] = dose: 200.0 mg/kg/injection, schedule: Q04DX003 (ip), vehicle: saline
[3] = dose: 400.0 mg/kg/injection, schedule: Q04DX003 (ip), vehicle: saline

CCC[CH2][Sn]1([CH2]CCC)[O]C(=O)c2c(c(-c3ccccc3)c(-c3ccccc3)c(-c3ccccc3)c2-c2ccccc2)C(=O)[O]1
survivor count (dose: 100.0 mg/kg/injection, schedule: Q01DX001 (ip), vehicle: saline): 0 of 4
survivor count (dose: 200.0 mg/kg/injection, schedule: Q01DX001 (ip), vehicle: saline): 0 of 4
survivor count (dose: 400.0 mg/kg/injection, schedule: Q01DX001 (ip), vehicle: saline): 0 of 4

C1CCc2nnnn2CC1
survivor count (dose: 50.0 mg/kg/injection, schedule: Q01DX009 (ip), vehicle: saline): 1 of 6
survivor count (dose: 70.0 mg/kg/injection, schedule: Q01DX009 (ip), vehicle: saline): 1 of 6
survivor count (dose: 100.0 mg/kg/injection, schedule: Q01DX009 (ip), vehicle: saline): 0 of 6
survivor count [1]: 0 of 6 and 1 of 4
survivor count (dose: 110.0 mg/kg/injection, schedule: Q01DX009 (ip), vehicle: saline): 0 of 6
survivor count (dose: 165.0 mg/kg/injection, schedule: Q01DX009 (ip), vehicle: saline): 0 of 6
survivor count [2]: 0 of 4 and 0 of 6

O=C(O)C(O)C(=O)O.[NH2-].[NH2-].[Pt+2]
survivor count (dose: 1.0 mg/kg/injection, schedule: Q01DX009 (ip), vehicle: other): 0 of 6
T/C (dose: 16.0 mg/kg/injection, schedule: Q01DX009 (ip), vehicle: other): 143 % of control
T/C (dose: 20.0 mg/kg/injection, schedule: Q01DX001 (ip), vehicle: other): 144 % of control
T/C (dose: 40.0 mg/kg/injection, schedule: Q01DX001 (ip), vehicle: other): 149 % of control
T/C (dose: 50.0 mg/kg/injection, schedule: Q04DX003 (ip), vehicle: saline): 138 % of control
T/C (dose: 60.0 mg/kg/injection, schedule: Q01DX001 (ip), vehicle: other): 135 % of control
T/C (dose: 64.0 mg/kg/injection, schedule: Q01DX001 (ip), vehicle: other): 143 % of control
T/C (dose: 80.0 mg/kg/injection, schedule: Q01DX001 (ip), vehicle: other): 127 % of control
T/C [1]: 136 % of control
survivor count [2]: 10 of 10
survivor count [3]: 8 of 10

O=Ic1ccccc1
survivor count (dose: 100.0 mg/kg/injection, schedule: Q01DX009 (ip), vehicle: Klucel (hydroxypropylcellulose) (HPC)): 0 of 6
survivor count (dose: 200.0 mg/kg/injection, schedule: Q04DX003 (ip), vehicle: Klucel (hydroxypropylcellulose) (HPC)): 0 of 6

CC(=Nc1cccnc1)c1ccccc1
survivor count (dose: 60.0 mg/kg/injection, schedule: Q01DX001 (ip), vehicle: carboxymethylcellulose (CMC)): 3 of 6
survivor count (dose: 75.0 mg/kg/injection, schedule: Q01DX001 (ip), vehicle: carboxymethylcellulose (CMC)): 1 of 6
survivor count (dose: 150.0 mg/kg/injection, schedule: Q01DX001 (ip), vehicle: carboxymethylcellulose (CMC)): 0 of 6
survivor count (dose: 300.0 mg/kg/injection, schedule: Q01DX001 (ip), vehicle: carboxymethylcellulose (CMC)): 0 of 6

CC(CC#N)NCC[P+](c1ccccc1)(c1ccccc1)c1ccccc1 (stereo not drawn)
survivor count [3]: 6 of 6
